Assay results: PubChem BioAssay AID272 (DTP/NCI, 2004)
The list shows only some results of the screen, not a fair sample: it is rich in T/C values a quarter to a half above the control, in often repeated tests (any T/C) and in doses without a T/C. Other doses and runs of a compound stand elsewhere. T/C is the treated group as % of the vehicle group. Some entries give survivors of the animals treated and no T/C: the source holds a T/C of zero for them, seemingly a mark for toxic or unscored doses. Some survivor counts are full or nearly so, which does not show that the dose was tolerated: survival well below the control is almost never listed, so the zero probably covers shortened survival too. Counts of survivors are from the toxicity check (mostly the fifth day) where no day follows; animals may have died later. Schedules are NCI's codes, read here as Q, the interval in days (D) or hours (H), X, the number of doses. Some entries were tested several times; their values stand side by side, smallest first. Where survival is the endpoint, this PubChem deposit counts one and a half times the control or more as active, and values a quarter to a half above the control carry no call in these data; other NCI protocols may use other cut-offs. Some T/C values are followed by the survivors on the day toxicity was checked, most often the fifth; without a count, all were alive then.

Tested on: Lewis lung carcinoma i.m., BDF1 mice, T/C %
Assay: NCI In Vivo Anticancer Drug Screen. Data for tumor model Lewis Lung Carcinoma (intramuscular) in B6D2F1 (BDF1) mice
Protocol: The antitumor activity of compounds was measured in mice bearing transplantable tumors. Survival or tumor size were measured and the results are expressed as the measurement made in the treated group (T) divided by the measurement made in the vehicle treated control group (C). The tumor model used in this assay is Lewis Lung Carcinoma (intramuscular) in B6D2F1 (BDF1) mice

Structure (SMILES): O=c1[nH]c(=O)n(C2CC(O)C(CO)O2)cc1F (configuration not stated)
- survivor count (T/C endpoint: mean tumor weight, dose: 40.0 mg/kg/injection, schedule: Q01DX011 (ip), vehicle: other, higher T/C = larger tumour): 5 of 8
- T/C (T/C endpoint: median survival time, dose: 10.0 mg/kg/injection, schedule: Q01DX009 (ip), vehicle: saline, evaluated on day 12, higher T/C = longer survival): 129 % of control
- T/C (T/C endpoint: median survival time, dose: 10.0 mg/kg/injection, schedule: Q01DX009 (ip), vehicle: saline, evaluated on day 41, higher T/C = longer survival): 133 % of control
- survivor count (T/C endpoint: median survival time, dose: 10.0 mg/kg/injection, schedule: Q01DX011 (ip), vehicle: saline, higher T/C = longer survival): 7 of 8
- T/C (T/C endpoint: median survival time, dose: 20.0 mg/kg/injection, schedule: Q01DX009 (ip), vehicle: saline, evaluated on day 12, higher T/C = longer survival): 134 % of control
- T/C (T/C endpoint: median survival time, dose: 20.0 mg/kg/injection, schedule: Q01DX009 (ip), vehicle: saline, evaluated on day 41, higher T/C = longer survival): 126 % of control
- survivor count (T/C endpoint: median survival time, dose: 40.0 mg/kg/injection, schedule: Q01DX011 (ip), vehicle: other, higher T/C = longer survival): 5 of 8
- T/C (T/C endpoint: median survival time, dose: 40.0 mg/kg/injection, schedule: Q01DX011 (ip), vehicle: saline, higher T/C = longer survival): 143 % of control
- T/C (T/C endpoint: median survival time, dose: 50.0 mg/kg/injection, schedule: Q01DX011 (ip), vehicle: saline, higher T/C = longer survival): 133 % of control
- T/C (T/C endpoint: median survival time, dose: 52.0 mg/kg/injection, schedule: Q01DX007 (sc), vehicle: saline, evaluated on day 14, higher T/C = longer survival): 134 % of control
- T/C (T/C endpoint: median survival time, dose: 52.0 mg/kg/injection, schedule: Q01DX007 (sc), vehicle: saline, evaluated on day 62, higher T/C = longer survival): 134 % of control
- T/C (T/C endpoint: median survival time, dose: 80.0 mg/kg/injection, schedule: Q01DX009 (ip), vehicle: saline, higher T/C = longer survival): 126 % of control
- T/C (T/C endpoint: median survival time, dose: 80.0 mg/kg/injection, schedule: Q01DX011 (ip), vehicle: other, higher T/C = longer survival): 130 % of control [6 of 8 alive]
- survivor count (T/C endpoint: median survival time, dose: 80.0 mg/kg/injection, schedule: Q01DX011 (ip), vehicle: saline, higher T/C = longer survival): 5 of 8 and 8 of 8
- survivor count (T/C endpoint: median survival time, dose: 100.0 mg/kg/injection, schedule: Q01DX009 (ip), vehicle: saline, higher T/C = longer survival): 9 of 10
- T/C (T/C endpoint: median survival time, dose: 100.0 mg/kg/injection, schedule: Q01DX011 (ip), vehicle: saline, higher T/C = longer survival): 142 % of control
- survivor count (T/C endpoint: median survival time, dose: 160.0 mg/kg/injection, schedule: Q01DX011 (ip), vehicle: other, higher T/C = longer survival): 0 of 8
- survivor count (T/C endpoint: median survival time, dose: 160.0 mg/kg/injection, schedule: Q01DX011 (ip), vehicle: saline, higher T/C = longer survival): 0 of 8, 1 of 8, 3 of 8
- survivor count (T/C endpoint: median survival time, dose: 160.0 mg/kg/injection, schedule: Q01DX011 (ip), vehicle: water, higher T/C = longer survival): 2 of 8
- survivor count (T/C endpoint: median survival time, dose: 200.0 mg/kg/injection, schedule: Q01DX009 (ip), vehicle: saline, higher T/C = longer survival): 10 of 10
- survivor count (T/C endpoint: median survival time, dose: 320.0 mg/kg/injection, schedule: Q01DX011 (ip), vehicle: water, higher T/C = longer survival): 0 of 8
- survivor count (T/C endpoint: median survival time, dose: 400.0 mg/kg/injection, schedule: Q01DX009 (ip), vehicle: saline, higher T/C = longer survival): 9 of 10
